Source: patent publication US20160271230A1 (UNIVERSITY HEALTH NETWORK, published 2016)
Results are given in words; binding and its absence hold for the method and conditions named. Some results given as binding are weak or reduced against the parent protein; the word gives no strength. Sequences can lack the tags named with a protein. Each block holds one binder with its values, some of them ahead of it.

Assays:
[1] = biological target: T1, His-tagged 4Ig-domain of Neogenin (Gallus gallus, UniProt Q90610 1-383); test: binding studies (data not shown)
T1 construct: Secreted from transfected cells, purified on Ni-NTA; also called His-4Ig; Neogenin-4Ig; not shown: 6-His tag at the N-terminus; myc and 6-His tags of the pSectag 2B vector at the C-terminus
T1 sequence: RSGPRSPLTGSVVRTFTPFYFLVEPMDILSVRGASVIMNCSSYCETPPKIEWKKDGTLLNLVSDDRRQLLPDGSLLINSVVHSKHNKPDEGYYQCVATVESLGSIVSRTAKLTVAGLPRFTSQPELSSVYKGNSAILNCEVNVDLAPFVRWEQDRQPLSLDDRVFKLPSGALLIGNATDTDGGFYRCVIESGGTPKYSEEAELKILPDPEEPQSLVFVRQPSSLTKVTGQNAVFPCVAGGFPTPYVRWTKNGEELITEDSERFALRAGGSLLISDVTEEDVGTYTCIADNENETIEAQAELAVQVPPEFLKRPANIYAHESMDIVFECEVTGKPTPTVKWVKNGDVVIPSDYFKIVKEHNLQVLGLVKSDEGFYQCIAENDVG

[2] = biological target: T2, N-RGMa (N-terminal part of RGMa) (chicken) (UniProt Q8JG54); test: ELISA with AP fusions (FIG. 2A)
T2 sequence: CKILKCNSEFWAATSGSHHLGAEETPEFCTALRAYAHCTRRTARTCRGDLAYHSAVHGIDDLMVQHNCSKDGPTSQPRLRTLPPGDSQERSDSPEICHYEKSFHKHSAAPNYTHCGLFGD

[3] = biological target: T2, N-RGMa (N-terminal part of RGMa) (chicken); test: ELISA with AP fusions and outgrowth assay (FIGS. 2A-2D)
[4] = biological target: T3, full-length RGMa (chicken) (UniProt Q8JG54); test: as above
T3 sequence: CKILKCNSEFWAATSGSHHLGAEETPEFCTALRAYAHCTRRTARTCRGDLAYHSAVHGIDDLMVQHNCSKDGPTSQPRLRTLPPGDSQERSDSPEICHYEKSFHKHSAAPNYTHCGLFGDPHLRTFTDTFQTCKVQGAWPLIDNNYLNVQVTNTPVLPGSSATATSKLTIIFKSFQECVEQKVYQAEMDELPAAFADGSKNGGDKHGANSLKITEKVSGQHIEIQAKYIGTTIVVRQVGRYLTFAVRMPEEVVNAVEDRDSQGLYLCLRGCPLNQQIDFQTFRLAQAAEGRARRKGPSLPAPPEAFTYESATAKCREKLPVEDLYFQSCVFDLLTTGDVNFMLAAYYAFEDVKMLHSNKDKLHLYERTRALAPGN

[5] = biological target: T4, C-RGMa (C-terminal part of RGMa) (chicken) (UniProt Q8JG54); test: as above
T4 sequence: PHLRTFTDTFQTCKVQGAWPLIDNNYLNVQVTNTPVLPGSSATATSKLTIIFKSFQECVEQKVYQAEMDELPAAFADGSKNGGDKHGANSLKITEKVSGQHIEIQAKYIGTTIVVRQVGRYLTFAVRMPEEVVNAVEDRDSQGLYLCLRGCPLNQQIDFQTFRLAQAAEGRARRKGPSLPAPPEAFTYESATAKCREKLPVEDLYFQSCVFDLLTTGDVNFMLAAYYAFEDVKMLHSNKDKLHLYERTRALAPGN

[6] = biological target: T3, full-length RGMa (chicken); test: binding assay, 4Ig-AP and 6FNIII-AP on wells coated with RGMa proteins (FIG. 9B)
[7] = biological target: T4, C-RGMa (C-terminal part of RGMa) (chicken); test: as above
[8] = biological target: T3, full-length RGMa (chicken); test: ELISA with AP fusions (FIG. 2A)
[9] = biological target: T4, C-RGMa (C-terminal part of RGMa) (chicken); test: plate binding assay with 4Ig- or 6FNIII-AP (FIG. 2A)

binding [1]: binds
B1: N-RGMa portion from human (peptide, UniProt Q96B86 48-168, looked up)
peptide: CKILKCNSEFWSATSGSHAPASDDTPEFCAALRSYALCTRRTARTCRGDLAYHSAVHGIEDLMSQHNCSKDGPTSQPRLRTLPPAGDSQERSDSPEICHYEKSFHKHSATPNYTHCGLFGD

binding [2]: binds
B2: 4Ig-domain of Neogenin fused to alkaline phosphatase (receptor, not shown: large carriers)
chain: T1 sequence

binding [3]: binds
binding [4]: binds
binding [5]: binds
binding [6]: binds
binding [7]: binds
binding [2]: binds
binding [8]: binds
binding [9]: binds
B3: 6FNIII-domain of Neogenin fused to alkaline phosphatase (receptor, not shown: large carriers)
chain: RDVVATLVSTRFIRLTWRTPVSDPQGDNLTYSIFYTKEGINRERVENTSRPGETQVMIQNLMPETVYVFRVVAQNKHGHGESSAPLKVATQPEVQLPGPAPNIRAYAGSPTSVTVTWETPLSGNGEIQNYKLYYMEKGQDSEQDVDVAGLSYTITGLKKYTEYSFRVVAYNKHGPGVSTQDVVVRTLSDVPSAAPQNLTLEARNSKSIMLHWQPPPAGTHSGQITGYKIRYRKVSRKSDVTESVGGTQLFQLIEGLERGTEYNFRIAAMTVNGTGPATDWVSAETFESDLDESRVPEVPSSLHVRPLVTSIVVSWTPPENQNIVVRGYAIGYGIGSPHAQTIKVDYKQRYYTIENLDPSSHYVITLKAFNNVGEGIPLYESAVTRPHSDTSEVDLFVINAPYTPVPDPSPMMPPVGVQASILSHDTIRITWADNSLPKNQKITDARYYTVRWKTNIPANTKYKTANATTLSYLVTGLKPNTLYEFSVMVTKGRRSSTWSMTAHGTTFELVPTSPPKDVTVVSKEGKPRTIIVNWQPPSEANGKITGYIIYYSTDVNAEIHDWVIEPVVGNRLTHQIQELTLDTPYYFKIQARNSKGMGPMSEAVQFRT
